From article PMC12699821, “STARD4 suppresses tumorigenesis and attenuates enzalutamide resistance via lipid metabolic reprogramming and AR stabilization in prostate cancer” (Journal of Experimental & Clinical Cancer Research : CR, 2025)
These are yes or no findings as the source states them, for the method shown. Binding seen in cells or lysates may run through a third protein. Binding can be weak; no strength is given. Sequences can lack the tags named with a protein.

Biological target: Flag-AR-NTD (human (Gene ID 367 is the human gene))
Assay: co-IP; 293T cells transfected with HA-labelled STARD4 and Flag-labelled AR or AR domain plasmids, western blotting

binding: binds
B1: His-tagged STARD4 (natural protein, human (Gene ID 134429 is the human gene), UniProt Q96DR4 1-205, looked up)
chain: MEGLSDVASFATKLKNTLIQYHSIEEDKWRVAKKTKDVTVWRKPSEEFNGYLYKAQGVIDDLVYSIIDHIRPGPCRLDWDSLMTSLDILENFEENCCVMRYTTAGQLWNIISPREFVDFSYTVGYKEGLLSCGISLDWDEKRPEFVRGYNHPCGWFCVPLKDNPNQSLLTGYIQTDLRGMIPQSAVDTAMASTLTNFYGDLRKAL
notes: STARD4, Gene ID 134429, vector printed as pGMLV; also called His-STARD4; source: BL21 (Rosetta) bacterial cells, purified (protein purification kit)
